Results: PMC5099462
Results are given in words; binding and its absence hold for the method and conditions named. In cells and extracts the contact can be indirect. Some entries that bind do so weakly or less than the wild type.

Chains of the proteins cited; added tags and fusions are not shown. Residues count along the entry.
UniProt Q61527, residues 26-1308: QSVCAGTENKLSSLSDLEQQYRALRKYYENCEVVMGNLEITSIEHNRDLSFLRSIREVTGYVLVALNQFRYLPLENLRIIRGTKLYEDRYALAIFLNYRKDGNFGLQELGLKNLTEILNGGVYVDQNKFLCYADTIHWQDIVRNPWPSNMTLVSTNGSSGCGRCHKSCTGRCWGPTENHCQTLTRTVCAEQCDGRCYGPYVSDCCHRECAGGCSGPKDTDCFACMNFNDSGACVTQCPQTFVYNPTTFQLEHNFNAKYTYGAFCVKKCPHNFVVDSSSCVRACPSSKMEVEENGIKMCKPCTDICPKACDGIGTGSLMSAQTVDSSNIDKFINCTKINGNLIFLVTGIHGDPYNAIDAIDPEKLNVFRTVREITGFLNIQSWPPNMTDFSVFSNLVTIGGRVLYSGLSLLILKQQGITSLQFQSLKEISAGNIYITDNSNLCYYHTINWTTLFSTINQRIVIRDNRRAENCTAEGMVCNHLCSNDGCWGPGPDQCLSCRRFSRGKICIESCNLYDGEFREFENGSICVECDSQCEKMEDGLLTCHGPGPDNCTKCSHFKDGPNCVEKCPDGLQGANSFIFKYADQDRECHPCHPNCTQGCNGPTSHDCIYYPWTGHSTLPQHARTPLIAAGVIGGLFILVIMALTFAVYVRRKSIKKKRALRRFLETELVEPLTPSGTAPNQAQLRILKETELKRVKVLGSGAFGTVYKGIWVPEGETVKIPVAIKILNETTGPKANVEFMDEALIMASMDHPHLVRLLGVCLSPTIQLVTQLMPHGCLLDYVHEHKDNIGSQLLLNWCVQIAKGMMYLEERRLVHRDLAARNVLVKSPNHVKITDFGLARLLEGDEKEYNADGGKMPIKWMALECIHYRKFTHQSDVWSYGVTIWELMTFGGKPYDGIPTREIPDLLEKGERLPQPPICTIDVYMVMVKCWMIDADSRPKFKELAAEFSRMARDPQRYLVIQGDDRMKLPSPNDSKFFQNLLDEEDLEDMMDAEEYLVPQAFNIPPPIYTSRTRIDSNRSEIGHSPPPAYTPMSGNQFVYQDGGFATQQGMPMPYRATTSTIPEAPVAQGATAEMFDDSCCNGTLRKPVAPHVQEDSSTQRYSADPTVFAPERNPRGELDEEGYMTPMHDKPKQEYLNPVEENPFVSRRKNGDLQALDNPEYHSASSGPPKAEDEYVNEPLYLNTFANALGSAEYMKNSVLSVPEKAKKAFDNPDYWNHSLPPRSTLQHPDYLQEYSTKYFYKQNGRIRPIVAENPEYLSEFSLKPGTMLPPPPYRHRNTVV

How the values were obtained:
[1] = biological target: T1, DISC1 (endogenous, mouse cortical neurons) (mouse (endogenous in primary cortical neurons)) (UniProt Q811T9); test: proximity ligation; Duolink In Situ Red PLA with anti-DISC1 (N-16) and anti-ErbB4 (C-18) on fixed DIV21 mouse cortical cultures, PG67-GFP-positive inhibitory neurons; cells treated with NRG1β1 for 5 min before fixation
T1 sequence: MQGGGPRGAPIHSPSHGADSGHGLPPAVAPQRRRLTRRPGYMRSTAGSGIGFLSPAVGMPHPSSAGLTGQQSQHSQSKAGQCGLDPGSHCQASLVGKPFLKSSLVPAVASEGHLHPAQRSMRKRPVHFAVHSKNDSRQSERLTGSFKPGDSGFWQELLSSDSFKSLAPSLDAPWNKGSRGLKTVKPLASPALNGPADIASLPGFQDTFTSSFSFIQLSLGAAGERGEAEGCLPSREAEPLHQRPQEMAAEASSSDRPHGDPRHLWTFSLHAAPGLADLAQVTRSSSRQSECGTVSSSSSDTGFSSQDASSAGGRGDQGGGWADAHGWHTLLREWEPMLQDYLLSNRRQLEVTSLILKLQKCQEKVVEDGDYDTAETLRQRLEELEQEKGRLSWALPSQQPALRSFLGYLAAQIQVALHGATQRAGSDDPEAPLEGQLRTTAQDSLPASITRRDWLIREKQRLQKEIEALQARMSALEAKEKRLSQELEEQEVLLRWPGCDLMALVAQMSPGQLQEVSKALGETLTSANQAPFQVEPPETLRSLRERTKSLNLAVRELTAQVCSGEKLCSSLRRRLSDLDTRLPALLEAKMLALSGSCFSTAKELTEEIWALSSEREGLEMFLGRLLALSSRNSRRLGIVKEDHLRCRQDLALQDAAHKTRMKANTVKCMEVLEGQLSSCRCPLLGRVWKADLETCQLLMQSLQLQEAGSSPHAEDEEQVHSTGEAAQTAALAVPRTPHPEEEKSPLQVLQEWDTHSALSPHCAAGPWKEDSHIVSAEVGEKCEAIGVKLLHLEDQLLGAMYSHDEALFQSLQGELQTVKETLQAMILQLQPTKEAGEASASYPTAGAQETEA

[2] = biological target: T1, DISC1 (endogenous, mouse cortical neurons) (mouse (endogenous in primary cortical neurons)); test: proximity ligation; Duolink In Situ Red PLA with anti-DISC1 (N-16) and anti-ErbB4 (C-18) on fixed DIV21 mouse cortical cultures, PG67-GFP-positive inhibitory neurons; cells treated with PBS (vehicle, no NRG1) for 5 min before fixation

“ErbB4 (endogenous, mouse cortical neurons) (from UniProt Q61527 26-1308) (receptor)” was tested, and the binding [1] was “binds” and the binding [2] was “no binding (condition: PBS-treated cells, without NRG1)”.
